From PMC12503912 (Chemmedchem, 2025)

Assay: general procedure: Fmoc solid-phase peptide synthesis; pre-loaded resins (H-Pro-2-chlorotrityl resin; Fmoc-Gly-Wang resin converted to isocyanide resin); HATU/HOAt/NMM
Conditions: late stage modification step, formate salt

With cemadotin the “final HPLC purity” value (analytical RP-HPLC) was over 95% and the step yield was 46% isolated yield.
